Results on one compound are retold here after patent publication US20240342190A1, “METHODS FOR REDUCING ISCHEMIA-REPERFUSION INJURIES” (BioMimetix JV, LLC, priority 2023, published 2024).

SMILES strings stand for the structures.

The data set has as its system young male Wistar rats subjected to 90 min of MCAO (ischemic stroke). As to the kind of experiment: Experiment 3: duration of BMX-001 treatment and long-term stroke outcome in young male rats. It counts as in vivo, rat. How it is done: The rats were fasted overnight for glucose control. On the surgery day, they were anesthetized with 5% isoflurane in 30% oxygen balanced with nitrogen. The trachea was orally intubated, and both lungs were mechanically ventilated to maintain normocapnia. Isoflurane was reduced to 1.5% during the surgical procedure. A 22-gauge needle thermistor was percutaneously inserted beneath the temporalis muscle adjacent to the skull. The pericranial temperature was maintained at 37.0° C.±0.2° C. by a surface heat lamp. The tail artery was cannulated with PE 50 tubing (BD Intramedic™ Polyethylene Tubing, Sparks, MD, USA), and arterial blood pressure was continuously monitored. 50 IU of heparin was given via arterial line to prevent intra-arterial thrombosis. Arterial blood samples were collected pre, during, and after ischemia for blood gas, glucose, and hematocrit measurements.
Ischemic stroke was induced by transiently occluding the middle cerebral artery (MCAO) as previously reported.^23,24 Briefly, a midline cervical incision was made and the right common carotid artery […] was identified. The external and internal carotid arteries were dissected. […] The internal carotid artery (ICA) was dissected distally until the origin of the pterygopalatine artery was visualized. After surgical preparation, a 10 min interval was allowed for physiologic stabilization. […] The common carotid artery was re-opened, and a timer was started as the onset of cerebral ischemia.
After 90 min of MCAO, the filament was removed and a PE-10 tube (BD Intramedic™ Polyethylene Tubing, Sparks, MD, USA) was inserted into the ICA beyond the origin of the pterygopalatine artery. The vehicle or BMX-001 (30-50 μg/kg) solution (1 μl/g for both solutions, 250 μl for the 250 g rat) was slowly infused for 5 minutes via syringe pump. At the completion of intra-carotid infusion, the PE tube was removed and the ECA stump was permanently ligated. The tail artery catheter was removed and both the neck incision and tail incision were infiltrated with bupivacaine and closed with suture. Isoflurane was discontinued. Rats were disconnected from the ventilator when they attained spontaneous respiration and kept in a recovery cage. The tracheas were extubated after recovery of the righting reflex. They were in an O2 enriched environment (30% O2) for 1 h and then returned to the home cage.
Post-stroke neurologic deficits were assessed at day 7 and 28 using a standardized neurological scoring system.^27,28 General status, simple motor deficit, complex motor deficit, and sensory deficit were evaluated, including the ability of walking on a beam and climbing on the vertical screen. The total score each animal received was the sum of all four individual scores (0-48, 0=normal and 48=the worst score).
Upon the completion of functional tests, the animals were weighed, anesthetized with isoflurane, and decapitated. The brains were harvested, frozen at −20° C. in 2-methylbutane on dry ice, and stored in a −80° C. freezer. Serial quadruplicate 20-μm-thick coronal sections were cut using a Leica cryostat and mounted on the slides at 720-μm interval over the rostral-caudal extent of the brain. The sections were dried on a slide heater at 36° C., and stained with hematoxylin and eosin. A section from each […] interval was digitized with a video camera controlled by an image analyzer (MCID, the MicroComputer Imaging Device, Imaging Research Inc, St. Catharines, Ontario, Canada). […] With the observer blinded to the experimental condition, the following regions of interest (ROI) were outlined individually using an operator-controlled cursor, including non-infarcted ipsilateral cerebral cortex, non-infarcted ipsilateral subcortex, contralateral cerebral cortex, and contralateral subcortex. The area in each ROI (mm^2) was determined by automated counting of calibrated pixels and the volume (mm^3) was computed by the known interval between sections over the rostral-caudal extent of brain. […]

Where [1] appears, read: 10 minutes before stroke, group BMX-001 for 7 days.
Where [2] appears, read: 10 minutes before stroke, group BMX-001 for 28 days.
The mark [3] stands for this setting: 45 minutes after stroke onset, group BMX-001 for 7 days.
Setting [4] is: 45 minutes after stroke onset, group BMX-001 for 28 days.

Consider `CCCCOCC[n+]1ccccc1C1=C2C=CC3=[N+]2[Mn]24[n]5c1ccc5C(c1cccc[n+]1CCOCCCC)=C1C=CC(=[N+]12)C(c1cccc[n+]1CCOCCCC)=c1ccc([n]14)=C3c1cccc[n+]1CCOCCCC` [BMX-001, MnTnBuOE-2-PyP^5+], for which, under setting [1], the Glucose is given as 104 ± 19, the Hct is reported as 42.6 ± 1.4, the PCO2 is recorded as 36 ± 3 and the PO2 is recorded as 168 ± 18. Besides, the pH under setting [1] is recorded as 7.481 ± 0.033. Under “10 minutes before stroke, group BMX-001 for 7 days (n = 19), mean ± SD”, this compound came in with an MAP of 75 ± 9 mmHg. Under setting [2], this compound displayed a Glucose of 110 ± 17, a Hct of 42.2 ± 1.3, a PCO2 of 35 ± 4 and a PO2 of 172 ± 13. The compound further returned a pH under setting [2] of 7.487 ± 0.039. Moreover, under “10 minutes before stroke, group BMX-001 for 28 days (n = 19), mean ± SD”, the MAP came to 75 ± 7 mmHg. Also, under setting [3], the MAP amounted to 69 ± 7 mmHg, the PCO2 was 37 ± 6, the PO2 worked out at 162 ± 17 and the pH came to 7.462 ± 0.048. Further, under setting [4], the MAP is 69 ± 7 mmHg, the PCO2 came out at 39 ± 6, the PO2 was 162 ± 17 and the pH was 7.433 ± 0.049.
